In patent publication US20210147572A1, “ANTIBODIES AND METHODS OF USE THEREOF” (AbeXXa Biologics, Inc., priority 2017, published 2021):
These are yes or no findings as the source states them, for the method shown. Some entries that bind do so weakly or less than the wild type.

Sequences of proteins named here, by UniProt entry; tags and fusion partners are left off. A change or cut given only in a name is not applied to a line headed by its entry.
UniProt P13747: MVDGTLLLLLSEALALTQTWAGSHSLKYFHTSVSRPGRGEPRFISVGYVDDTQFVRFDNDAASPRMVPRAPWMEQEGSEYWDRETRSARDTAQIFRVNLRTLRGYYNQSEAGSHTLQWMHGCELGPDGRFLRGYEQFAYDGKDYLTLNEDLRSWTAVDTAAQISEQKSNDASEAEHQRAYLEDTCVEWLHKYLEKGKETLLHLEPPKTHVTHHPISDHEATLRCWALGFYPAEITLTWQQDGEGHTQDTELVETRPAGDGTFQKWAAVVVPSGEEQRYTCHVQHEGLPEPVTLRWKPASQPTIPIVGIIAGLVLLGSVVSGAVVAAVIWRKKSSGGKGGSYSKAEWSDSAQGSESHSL
UniProt P61769: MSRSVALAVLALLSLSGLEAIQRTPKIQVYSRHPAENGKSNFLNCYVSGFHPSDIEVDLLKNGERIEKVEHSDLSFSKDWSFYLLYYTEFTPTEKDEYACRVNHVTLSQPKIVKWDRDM

Biological target: HLA-E molecules expressed in PDX lung tumor tissue (model LU5139) (human) (UniProt P13747+P61769)
Experiment: 4D12 affinity capture of HLA-E, peptide elution, LC/MS/MS

GLADKVYFL [peptide GLADKVYFL (CAD protein)]
binding: binds
